Assay results as given in paper PMC7027753, “Interaction of N‐acetyl‐L‐glutamate kinase with the PII signal transducer in the non‐photosynthetic alga Polytomella parva: Co‐evolution towards a hetero‐oligomeric enzyme” (The Febs Journal, 2019).
Results are given in words; binding and its absence hold for the method and conditions named. Binding calls can cover weak binding; strength is not graded here.

Sequences of proteins named here, by UniProt entry; tags and fusion partners are left off. A change or cut given only in a name is not applied to a line headed by its entry.
UniProt Q6AUR2: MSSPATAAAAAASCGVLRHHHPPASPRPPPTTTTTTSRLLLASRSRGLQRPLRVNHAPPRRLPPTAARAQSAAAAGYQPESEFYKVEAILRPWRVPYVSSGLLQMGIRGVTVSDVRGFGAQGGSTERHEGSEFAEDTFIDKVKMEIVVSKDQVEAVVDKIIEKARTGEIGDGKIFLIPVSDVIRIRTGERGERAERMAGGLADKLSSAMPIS

Legend:
[1] = biological target: Polytomella parva N-acetyl-L-glutamate kinase (Polytomella parva) (UniProt A6XGV3); test: SPR; as a2, 1000 nM PII incubated and injected with Mg2+-ATP and Gln (Mg2+-ATP alone, or with 2-OG, in some injections); both purified
[2] = biological target: Polytomella parva N-acetyl-L-glutamate kinase (Polytomella parva) (UniProt A6XGV3); test: SPR; His6-NAGK immobilised on a Ni2+-loaded NTA chip (FC2), strep-tagged PII injected as analyte (50-1000 nM), 25 °C, HBS (10 mM HEPES, 150 mM NaCl, 2 mM MgCl2, 0.005% NP-40, pH 7.5), FC2-FC1; without effector molecules; Kd estimated from ΔRU; both purified
[3] = biological target: Polytomella parva N-acetyl-L-glutamate kinase (Polytomella parva) (UniProt A6XGV3); test: SPR; as a2, 1000 nM PII incubated and injected with ADP / Mg2+-ADP (for PpaPII on PpaNAGK also 2 mM ADP injected during dissociation); both purified

Measured: binding

Oryza sativa PII protein (from UniProt Q6AUR2)
binds: [1] | [2] | [3]
